Laboratory results from patent publication US12279521B2, “Materials for organic electroluminescent devices” (Merck Patent GmbH, priority 2019, dated 2025).

Experiment: Loss of OLED efficiency after baking of emission layer at elevated temperature
Conditions: OLED per Tables 5 and 6
From the text: The production of the corresponding OLED components is described below.
One way of processing the matrix materials of the invention is from solution. There are already many descriptions of the production of completely solution-based OLEDs in the literature, for example in WO 2004/037887 by means of spin coating. There have likewise been many previous descriptions of the production of vacuum-based OLEDs, including in WO 2004/058911. In the examples discussed hereinafter, layers applied in a solution-based and vacuum-based manner are combined within an OLED, and so the processing up to and including the emission layer is effected from solution and in the subsequent layers (hole blocker layer and electron transport layer) from vacuum. For this purpose, the previously described general methods are matched to the circumstances described here (layer thickness variation, materials) and combined as follows. The general structure is as follows: substrate/ITO (50 nm)/hole injection layer (HIL)/hole transport layer (HTL)/emission layer (EML)/optional hole blocker layer (HBL)/electron transport layer (ETL)/optional electron injection layer/cathode (aluminium, 100 nm). Substrates used are glass plates coated with structured ITO (indium tin oxide) of thickness 50 nm. For better processing, they are coated with PEDOT:PSS (poly(3,4-ethylenedioxy-2,5-thiophene) polystyrenesulfonate, purchased from Heraeus Precious Metals GmbH & Co. KG, Germany). PEDOT:PSS is spun on from water under air and subsequently baked under air at 180° C. for 10 minutes in order to remove residual water. The hole transport layer and the emission layer are applied to these coated glass plates. The hole transport layer used is crosslinkable. A polymer of the structures depicted below is used, which can be synthesized according to WO 2010/097155 or WO 2013/156130:
The emission layer is composed of at least one matrix material (host material) and an emitting dopant (emitter). In addition, it is possible to use mixtures of a plurality of matrix materials and co-dopants. Details given in such a form as TMM-A (92%):dopant (8%) mean here that the material TMM-A is present in the emission layer in a proportion by weight of 92% and dopant in a proportion by weight of 8%. The mixture for the emission layer is dissolved in toluene or optionally chlorobenzene. The typical solids content of such solutions is about 17 g/I when, as here, the layer thickness of 60 nm which is typical of a device is to be achieved by means of spin-coating. The layers are spun on in an inert gas atmosphere, argon in the present case, and baked for 10 minutes.
The cathode is formed by the thermal evaporation of an aluminium layer of thickness 100 nm. The OLEDs are characterized in a standard manner. For this purpose, the electroluminescence spectra, current-voltage-luminance characteristics (IUL characteristics) assuming Lambertian radiation characteristics and the (operating) lifetime are determined. The IUL characteristics are used to determine indices such as, for example, external quantum efficiency at a particular brightness. LT97 @ 60 mA/cm^2 is the lifetime before the OLED, given a constant current density of 60 mA/cm^2, has fallen to 97% of the starting luminance.

[1] = Ref. temp. 150, elevated temp. 180
[2] = Ref. temp. 160, elevated temp. 170
[3] = Ref. temp. 160, elevated temp. 180
[4] = Ref. temp. 150, elevated temp. 170

Compound | Loss of efficiency after baking at elevated temperature [1] [%] | Loss of efficiency after baking at elevated temperature [2] [%] | Loss of efficiency after baking at elevated temperature [3] [%] | Loss of efficiency after baking at elevated temperature [4] [%]
c1ccc(-c2cccc(-c3cc(-c4cccc(-c5ccccc5)c4)cc(C4(c5cc(-c6cccc(-c7ccccc7)c6)cc(-c6cccc(-c7ccccc7)c6)c5)c5ccccc5-c5ccccc54)c3)c2)cc1 [Compound B-1, reference compound] | ≥70 | ≥10 | ≥70 | 
c1ccc(-c2cc(-c3ccccc3)cc(-c3cccc(-c4cccc(C5(c6cccc(-c7cccc(-c8cc(-c9ccccc9)cc(-c9ccccc9)c8)c7)c6)c6ccccc6-c6ccccc65)c4)c3)c2)cc1 [Compound B-2, reference compound] |  |  | ≥10 | 
c1ccc(-c2cccc(-c3cc(-c4ccccc4)cc(-c4cccc(C5(c6cccc(-c7cc(-c8ccccc8)cc(-c8cccc(-c9ccccc9)c8)c7)c6)c6ccccc6-c6ccccc65)c4)c3)c2)cc1 [Compound B-4, reference compound] | ≥10 |  |  | 
c1ccc(-c2cc(-c3ccccc3)cc(-c3cccc(-c4cccc(C5(c6cccc(-c7cccc(-c8cc(-c9ccccc9)cc(-c9ccccc9)c8)c7)c6)c6ccccc6-c6c(-c7ccccc7)cccc65)c4)c3)c2)cc1 [Compound M-0002] | ≤5 |  | ≤5 | 
c1ccc(-c2cccc(-c3cc(-c4cccc(-c5ccccc5)c4)cc(C4(c5cc(-c6cccc(-c7ccccc7)c6)cc(-c6cccc(-c7ccccc7)c6)c5)c5ccccc5-c5c(-c6ccccc6)cccc54)c3)c2)cc1 [Compound M-0005] |  | ≤5 |  | ≤5
c1ccc(-c2cccc(-c3cc(-c4cccc(-c5ccccc5)c4)cc(C4(c5cc(-c6cccc(-c7ccccc7)c6)cc(-c6cccc(-c7ccccc7)c6)c5)c5ccccc5-c5c(-c6ccccc6-c6ccccc6)cccc54)c3)c2)cc1 [Compound M-0043] | ≤5 |  |  | 
Cc1cc(C)c(-c2cccc3c2-c2ccccc2C3(c2cc(-c3cc(-c4ccc(C(C)(C)C)cc4)cc(-c4ccc(C(C)(C)C)cc4)c3)cc(-c3cc(-c4ccc(C(C)(C)C)cc4)cc(-c4ccc(C(C)(C)C)cc4)c3)c2)c2cc(-c3cc(-c4ccc(C(C)(C)C)cc4)cc(-c4ccc(C(C)(C)C)cc4)c3)cc(-c3cc(-c4ccc(C(C)(C)C)cc4)cc(-c4ccc(C(C)(C)C)cc4)c3)c2)c(C)c1 [Compound M-0086] | ≤5 |  |  | 
c1ccc(-c2cc(-c3ccccc3)cc(-c3cccc(-c4cccc(C5(c6cccc(-c7cccc(-c8cc(-c9ccccc9)cc(-c9ccccc9)c8)c7)c6)c6ccccc6-c6c(-c7cccc(-c8ccccc8)c7)cccc65)c4)c3)c2)cc1 [Compound M-0162] | ≤5 |  |  | 
Cc1ccc2c(c1)-c1c(-c3cccc(-c4ccccc4)c3)cccc1C2(c1cccc(-c2cccc3c2-c2ccccc2C3(C)C)c1)c1cccc(-c2cccc3c2-c2ccccc2C3(C)C)c1 [Compound M-0172] |  |  |  | ≤5
c1ccc(-c2cc(-c3ccccc3)cc(-c3cccc(-c4cccc(C5(c6cccc(-c7cccc(-c8cc(-c9ccccc9)cc(-c9ccccc9)c8)c7)c6)c6cc7c(cc6-c6c5ccc5c6-c6ccccc6C56c5ccccc5-c5ccccc56)OCO7)c4)c3)c2)cc1 [Compound M-0226] | ≤5 |  |  | 
